According to the supplement of paper PMC10849652:
The list shows a part of the results.

Chains of the proteins cited; added tags and fusions are not shown. Lines headed by an entry give the natural chain unless they say otherwise; changes in a name come on top.
UniProt Q9Y3D2: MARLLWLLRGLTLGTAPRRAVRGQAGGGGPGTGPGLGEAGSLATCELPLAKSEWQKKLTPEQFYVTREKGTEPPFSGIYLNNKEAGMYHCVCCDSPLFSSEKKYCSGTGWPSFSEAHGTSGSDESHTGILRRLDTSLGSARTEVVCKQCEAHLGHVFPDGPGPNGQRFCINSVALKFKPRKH
UniProt Q9ULH7: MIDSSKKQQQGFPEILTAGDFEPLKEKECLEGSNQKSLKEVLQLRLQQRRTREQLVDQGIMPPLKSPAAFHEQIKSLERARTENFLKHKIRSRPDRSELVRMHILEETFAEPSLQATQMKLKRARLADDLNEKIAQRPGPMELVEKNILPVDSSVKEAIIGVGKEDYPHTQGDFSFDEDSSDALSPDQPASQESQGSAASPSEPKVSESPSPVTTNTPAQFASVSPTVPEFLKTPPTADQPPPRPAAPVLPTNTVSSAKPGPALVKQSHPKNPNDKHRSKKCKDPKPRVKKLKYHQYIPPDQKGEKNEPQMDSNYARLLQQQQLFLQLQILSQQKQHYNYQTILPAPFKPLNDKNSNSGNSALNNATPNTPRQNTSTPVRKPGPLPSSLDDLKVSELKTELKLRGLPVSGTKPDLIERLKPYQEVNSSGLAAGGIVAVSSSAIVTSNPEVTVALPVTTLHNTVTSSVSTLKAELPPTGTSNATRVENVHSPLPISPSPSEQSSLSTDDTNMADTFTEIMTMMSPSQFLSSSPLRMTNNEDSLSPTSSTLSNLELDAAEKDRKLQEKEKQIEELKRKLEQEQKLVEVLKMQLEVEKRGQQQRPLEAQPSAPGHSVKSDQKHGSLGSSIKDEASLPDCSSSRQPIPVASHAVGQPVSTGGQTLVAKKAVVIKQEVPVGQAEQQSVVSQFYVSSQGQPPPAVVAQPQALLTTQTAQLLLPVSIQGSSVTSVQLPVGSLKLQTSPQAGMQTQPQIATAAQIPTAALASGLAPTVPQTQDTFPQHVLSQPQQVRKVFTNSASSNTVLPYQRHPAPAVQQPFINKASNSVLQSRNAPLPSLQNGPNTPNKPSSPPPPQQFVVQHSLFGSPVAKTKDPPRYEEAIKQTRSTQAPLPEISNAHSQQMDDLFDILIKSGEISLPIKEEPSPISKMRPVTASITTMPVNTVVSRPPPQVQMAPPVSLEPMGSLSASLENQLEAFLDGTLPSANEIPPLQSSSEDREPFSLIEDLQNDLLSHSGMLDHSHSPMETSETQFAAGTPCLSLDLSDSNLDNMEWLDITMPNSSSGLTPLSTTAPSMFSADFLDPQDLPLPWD
UniProt Q13496: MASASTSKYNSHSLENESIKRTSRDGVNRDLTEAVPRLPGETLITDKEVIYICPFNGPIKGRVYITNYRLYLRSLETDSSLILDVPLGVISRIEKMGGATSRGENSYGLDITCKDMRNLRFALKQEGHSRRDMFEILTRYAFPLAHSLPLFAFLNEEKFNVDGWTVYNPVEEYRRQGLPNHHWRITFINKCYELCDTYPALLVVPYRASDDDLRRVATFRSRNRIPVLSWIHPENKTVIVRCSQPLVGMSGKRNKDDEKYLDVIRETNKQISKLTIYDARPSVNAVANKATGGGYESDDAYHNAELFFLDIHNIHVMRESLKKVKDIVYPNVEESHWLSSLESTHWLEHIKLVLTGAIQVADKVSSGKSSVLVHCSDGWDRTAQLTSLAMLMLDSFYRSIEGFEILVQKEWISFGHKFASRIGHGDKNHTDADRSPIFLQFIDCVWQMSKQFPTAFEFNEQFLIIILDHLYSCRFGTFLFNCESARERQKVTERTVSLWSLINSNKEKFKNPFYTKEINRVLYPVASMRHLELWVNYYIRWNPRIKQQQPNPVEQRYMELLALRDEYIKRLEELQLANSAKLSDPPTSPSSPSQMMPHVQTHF
UniProt Q96E11: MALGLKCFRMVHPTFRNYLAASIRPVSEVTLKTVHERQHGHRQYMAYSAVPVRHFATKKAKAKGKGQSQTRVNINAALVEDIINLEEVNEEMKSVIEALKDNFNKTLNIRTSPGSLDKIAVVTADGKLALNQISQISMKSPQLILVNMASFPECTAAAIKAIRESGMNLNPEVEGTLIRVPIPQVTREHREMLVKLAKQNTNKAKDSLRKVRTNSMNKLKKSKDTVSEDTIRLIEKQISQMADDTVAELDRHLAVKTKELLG
UniProt Q99417: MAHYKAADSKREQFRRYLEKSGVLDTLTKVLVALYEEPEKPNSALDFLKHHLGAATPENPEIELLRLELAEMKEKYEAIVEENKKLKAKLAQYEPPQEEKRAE
UniProt P84157: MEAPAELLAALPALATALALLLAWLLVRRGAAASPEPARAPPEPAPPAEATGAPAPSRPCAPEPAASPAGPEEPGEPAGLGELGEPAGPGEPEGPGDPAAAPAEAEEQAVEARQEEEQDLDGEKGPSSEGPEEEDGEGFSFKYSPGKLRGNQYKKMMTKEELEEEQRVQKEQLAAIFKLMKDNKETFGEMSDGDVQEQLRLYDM
UniProt P03886, whole entry, looked up: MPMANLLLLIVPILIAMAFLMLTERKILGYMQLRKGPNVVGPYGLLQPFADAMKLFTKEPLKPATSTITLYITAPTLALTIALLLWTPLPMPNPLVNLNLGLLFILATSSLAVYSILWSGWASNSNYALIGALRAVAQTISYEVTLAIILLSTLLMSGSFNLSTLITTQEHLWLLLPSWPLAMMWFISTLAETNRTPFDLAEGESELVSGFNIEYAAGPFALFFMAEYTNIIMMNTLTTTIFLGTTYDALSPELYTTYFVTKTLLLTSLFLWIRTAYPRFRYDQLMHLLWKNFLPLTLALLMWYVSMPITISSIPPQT
UniProt O75431: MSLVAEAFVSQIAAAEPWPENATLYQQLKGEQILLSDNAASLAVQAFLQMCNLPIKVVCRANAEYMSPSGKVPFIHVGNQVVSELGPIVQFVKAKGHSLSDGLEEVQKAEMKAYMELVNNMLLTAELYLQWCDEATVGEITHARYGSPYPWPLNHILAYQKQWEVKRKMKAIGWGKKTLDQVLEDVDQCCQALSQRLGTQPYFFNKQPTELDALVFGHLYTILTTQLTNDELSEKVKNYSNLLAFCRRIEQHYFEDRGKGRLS
UniProt Q92614: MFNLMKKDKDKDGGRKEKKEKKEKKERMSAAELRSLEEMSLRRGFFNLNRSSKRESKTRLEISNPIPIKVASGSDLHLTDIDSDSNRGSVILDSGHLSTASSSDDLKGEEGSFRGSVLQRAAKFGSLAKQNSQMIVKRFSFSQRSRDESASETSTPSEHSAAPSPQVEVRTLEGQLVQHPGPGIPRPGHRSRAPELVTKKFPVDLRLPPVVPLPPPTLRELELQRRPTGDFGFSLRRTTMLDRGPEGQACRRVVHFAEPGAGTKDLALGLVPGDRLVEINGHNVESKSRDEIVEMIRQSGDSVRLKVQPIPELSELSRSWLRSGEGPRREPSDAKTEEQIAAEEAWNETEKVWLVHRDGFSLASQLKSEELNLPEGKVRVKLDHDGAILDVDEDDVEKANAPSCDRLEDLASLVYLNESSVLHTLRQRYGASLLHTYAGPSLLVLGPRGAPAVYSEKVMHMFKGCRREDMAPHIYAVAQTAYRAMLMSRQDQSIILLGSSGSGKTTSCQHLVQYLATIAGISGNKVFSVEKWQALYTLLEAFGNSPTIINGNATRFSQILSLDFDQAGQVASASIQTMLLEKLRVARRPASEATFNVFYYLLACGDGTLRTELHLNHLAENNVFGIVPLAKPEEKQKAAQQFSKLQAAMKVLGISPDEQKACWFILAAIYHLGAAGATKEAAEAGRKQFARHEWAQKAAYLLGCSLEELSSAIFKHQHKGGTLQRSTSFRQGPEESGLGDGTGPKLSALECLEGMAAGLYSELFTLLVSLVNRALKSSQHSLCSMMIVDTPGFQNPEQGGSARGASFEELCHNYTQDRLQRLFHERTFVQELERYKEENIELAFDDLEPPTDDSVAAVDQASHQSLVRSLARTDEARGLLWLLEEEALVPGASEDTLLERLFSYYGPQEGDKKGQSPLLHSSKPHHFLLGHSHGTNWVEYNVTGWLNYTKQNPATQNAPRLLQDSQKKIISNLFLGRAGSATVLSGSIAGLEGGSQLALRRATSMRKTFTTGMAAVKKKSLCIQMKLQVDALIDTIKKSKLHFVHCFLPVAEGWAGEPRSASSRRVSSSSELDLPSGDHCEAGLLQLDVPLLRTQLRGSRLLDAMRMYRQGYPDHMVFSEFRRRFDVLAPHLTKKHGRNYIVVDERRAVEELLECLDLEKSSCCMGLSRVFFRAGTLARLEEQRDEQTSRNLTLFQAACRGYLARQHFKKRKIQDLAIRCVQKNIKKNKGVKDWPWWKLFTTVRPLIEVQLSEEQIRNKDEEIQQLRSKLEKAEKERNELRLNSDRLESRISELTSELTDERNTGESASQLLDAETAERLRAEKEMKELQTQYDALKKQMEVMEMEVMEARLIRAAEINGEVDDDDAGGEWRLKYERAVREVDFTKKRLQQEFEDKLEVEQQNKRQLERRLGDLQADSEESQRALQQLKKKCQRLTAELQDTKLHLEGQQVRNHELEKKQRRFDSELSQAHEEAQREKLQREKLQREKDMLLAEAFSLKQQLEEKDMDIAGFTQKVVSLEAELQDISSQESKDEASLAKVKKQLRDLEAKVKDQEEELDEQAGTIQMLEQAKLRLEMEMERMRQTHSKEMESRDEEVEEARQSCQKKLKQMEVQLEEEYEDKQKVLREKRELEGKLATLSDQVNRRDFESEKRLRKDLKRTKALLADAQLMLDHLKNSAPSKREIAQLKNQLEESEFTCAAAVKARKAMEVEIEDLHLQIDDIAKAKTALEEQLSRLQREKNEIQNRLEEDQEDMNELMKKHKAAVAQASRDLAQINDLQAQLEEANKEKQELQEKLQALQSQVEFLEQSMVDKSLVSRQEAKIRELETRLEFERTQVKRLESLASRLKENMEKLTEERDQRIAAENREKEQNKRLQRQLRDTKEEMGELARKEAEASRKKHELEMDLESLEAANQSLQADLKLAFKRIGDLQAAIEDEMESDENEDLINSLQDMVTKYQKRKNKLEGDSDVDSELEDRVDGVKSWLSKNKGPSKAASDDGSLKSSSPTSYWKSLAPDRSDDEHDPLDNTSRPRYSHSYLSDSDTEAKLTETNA
UniProt Q13505: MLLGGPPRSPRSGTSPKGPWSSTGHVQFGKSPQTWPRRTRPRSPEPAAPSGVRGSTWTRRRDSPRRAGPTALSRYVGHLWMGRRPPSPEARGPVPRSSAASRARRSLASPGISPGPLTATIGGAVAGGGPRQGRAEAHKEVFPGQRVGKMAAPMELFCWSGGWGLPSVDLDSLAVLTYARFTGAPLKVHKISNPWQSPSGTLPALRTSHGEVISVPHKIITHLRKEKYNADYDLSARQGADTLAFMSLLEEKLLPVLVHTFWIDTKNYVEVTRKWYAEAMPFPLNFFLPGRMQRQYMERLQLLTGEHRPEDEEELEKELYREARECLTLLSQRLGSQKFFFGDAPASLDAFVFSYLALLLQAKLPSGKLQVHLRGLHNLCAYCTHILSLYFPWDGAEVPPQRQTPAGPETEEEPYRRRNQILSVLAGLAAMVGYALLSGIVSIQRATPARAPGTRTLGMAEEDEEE
UniProt Q9Y6C9: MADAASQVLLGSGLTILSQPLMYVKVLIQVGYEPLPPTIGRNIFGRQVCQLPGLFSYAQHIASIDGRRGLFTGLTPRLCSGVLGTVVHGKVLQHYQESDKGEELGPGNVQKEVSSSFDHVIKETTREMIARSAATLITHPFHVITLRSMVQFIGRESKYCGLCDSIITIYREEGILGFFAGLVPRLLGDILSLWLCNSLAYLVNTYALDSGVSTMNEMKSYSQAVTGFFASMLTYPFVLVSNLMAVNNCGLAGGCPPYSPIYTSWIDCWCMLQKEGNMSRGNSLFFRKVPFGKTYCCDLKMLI
UniProt Q13330: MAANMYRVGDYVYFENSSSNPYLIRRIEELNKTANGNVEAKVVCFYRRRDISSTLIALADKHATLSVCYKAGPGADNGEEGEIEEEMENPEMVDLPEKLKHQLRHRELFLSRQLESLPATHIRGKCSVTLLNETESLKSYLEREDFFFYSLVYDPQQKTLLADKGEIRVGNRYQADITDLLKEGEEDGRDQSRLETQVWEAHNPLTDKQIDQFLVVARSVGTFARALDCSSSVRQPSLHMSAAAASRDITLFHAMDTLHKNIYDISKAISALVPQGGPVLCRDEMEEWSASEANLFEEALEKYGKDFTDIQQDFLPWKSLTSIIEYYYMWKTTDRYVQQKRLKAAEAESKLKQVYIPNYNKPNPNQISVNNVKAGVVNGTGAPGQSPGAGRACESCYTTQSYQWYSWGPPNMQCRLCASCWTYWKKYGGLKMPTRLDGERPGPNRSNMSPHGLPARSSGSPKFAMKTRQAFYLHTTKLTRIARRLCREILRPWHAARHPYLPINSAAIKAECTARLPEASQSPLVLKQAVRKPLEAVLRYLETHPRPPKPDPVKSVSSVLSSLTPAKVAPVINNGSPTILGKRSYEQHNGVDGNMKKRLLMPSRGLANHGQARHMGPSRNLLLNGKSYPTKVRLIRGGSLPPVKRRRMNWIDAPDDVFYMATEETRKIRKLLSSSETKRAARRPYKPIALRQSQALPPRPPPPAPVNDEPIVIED

Key:
Assay in all cases: log2 fold change, soluble protein after heating vs DMSO (PISA); higher = thermal stabilisation; K562 cells, 10 uM, 30 min; active = over 0.2 and 3.5 SD of the protein, either way, in both replicates (recomputed)
[1] = compound: C#Cc1cccc(Nc2ncnc3cc(OCCOC)c(OCCOC)cc23)c1 [erlotinib]
In short: (§1)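 Values are thermal stability changes relative to control samples and are taken from duplicates. They are stated as log2 fold changes. Before quantification by TMTpro 16plex LC-MS/MS with equalised channel sums, K562 cells at 2×10^6 cells/mL were treated with 10 μM compound for 30 min, heated in aliquots for 3 min across 48°C-58°C, pooled, extracted in PBS with 0.5% NP-40 at 4°C, and centrifuged at 21,000xg for 90 min to give the soluble supernatant.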

[2] = compound: C/C(=N\NC(=O)C1=CC(=CC=C1)S(=O)(=O)N2CCOCC2)/C3=C(C=CC(=C3)Cl)O
In short: as §1

[3] = compound: C1=CC(=C(C=C1Cl)C2=NC3=NC=CN=C3C(=N2)NC4=CC=NC=C4)F
In short: as §1

[4] = compound: C1=CC(=CC=C1C2=NC3=C(N2)C=C(C=C3)C(=O)N)OC4=CC=C(C=C4)Cl
In short: as §1

[5] = compound: C1=CC2=C(C=CC(=C2)/C=C\3/C(=O)NC(=NCC4=CC=CS4)S3)N=C1
In short: as §1

[6] = compound: C1=CC2=NC=CN=C2C=C1/C=C/3\C(=O)NC(=O)S3
In short: as §1

[7] = compound: C1=CC=C(C=C1)C2=NC(=C(N2)C3=CC=NC=C3)C4=CC(=C(C=C4)Cl)O
In short: as §1

[8] = compound: C1=CC=C2C(=C1)C3=NNC4=CC=CC(=C43)C2=O
In short: as §1

[9] = compound: C1CCN(C1)C(=O)NC2=CC=CC(=C2)NC3=NC=C(C(=N3)NCCC4=CN=CN4)Br
In short: as §1

[10] = compound: C1CN(CCC1(CC2=CC=C(C=C2)Cl)N)C3=NC=NC4=C3C=CN4
In short: as §1

Row | Target | log2 fold change [1] | log2 fold change [2] | log2 fold change [3] | log2 fold change [4] | log2 fold change [5] | log2 fold change [6] | log2 fold change [7] | log2 fold change [8] | log2 fold change [9] | log2 fold change [10]
1 | MSL1 (UniProt Q68DK7) | inactive: 0.185 | active: -0.603 | inactive: 0.106 | inactive: -0.193 | inactive: 0.069 | inactive: -0.033 | inactive: 0.066 | inactive: -0.026 | – | –
2 | MTR (UniProt Q99707) | inactive: 0.063 | inactive: 0.024 | inactive: -0.109 | inactive: -0.049 | inactive: 0.005 | inactive: 0.018 | inactive: -0.03 | inactive: 0.002 | inactive: 0.005 | inactive: -0.016
3 | MTSS2 (UniProt Q765P7) | inactive: 0.028 | inactive: -0.027 | inactive: 0.053 | inactive: -0.018 | inactive: 0.083 | inactive: 0.045 | inactive: 0.03 | inactive: 0.01 | inactive: -0.008 | inactive: 0.071
4 | MRPS28 (UniProt Q9Y2Q9) | inactive: -0.08 | inactive: 0.071 | inactive: 0.003 | inactive: 0.096 | inactive: -0.061 | inactive: -0.001 | inactive: 0.028 | inactive: 0.082 | inactive: -0.044 | inactive: -0.091
5 | MSRB2 (UniProt Q9Y3D2) | inactive: -0.06 | inactive: -0.007 | inactive: -0.044 | inactive: 0.007 | inactive: 0.01 | inactive: -0.032 | inactive: 0.063 | inactive: -0.043 | inactive: -0.178 | inactive: 0.029
6 | MYO19 (UniProt Q96H55) | inactive: 0.032 | inactive: -0.047 | inactive: -0.103 | inactive: -0.114 | inactive: 0.011 | inactive: 0.093 | inactive: 0.027 | inactive: 0.07 | – | –
7 | MTMR12 (UniProt Q9C0I1) | inactive: 0.008 | inactive: -0.031 | inactive: 0.017 | inactive: 0.013 | inactive: 0.036 | inactive: 0.034 | inactive: -0.035 | inactive: -0.077 | inactive: -0.001 | inactive: 0.021
8 | MRTFB isoform 5 (UniProt Q9ULH7) | inactive: -0.004 | inactive: 0 | inactive: 0.055 | inactive: 0.013 | inactive: 0.062 | inactive: 0.021 | inactive: -0.044 | inactive: -0.01 | inactive: -0.036 | inactive: -0.017
9 | MRPS31 (UniProt Q92665) | inactive: 0.003 | inactive: 0.001 | inactive: -0.032 | inactive: 0.105 | inactive: -0.004 | inactive: 0.023 | inactive: 0.048 | inactive: 0.064 | inactive: 0.003 | inactive: -0.066
10 | MTM1 (UniProt Q13496) | inactive: 0.014 | inactive: 0.052 | inactive: -0.014 | inactive: 0.031 | inactive: -0.058 | inactive: 0.027 | inactive: -0.01 | inactive: 0.03 | inactive: -0.034 | inactive: 0.046
11 | MRRF (UniProt Q96E11) | inactive: -0.022 | inactive: 0.041 | inactive: 0.056 | inactive: 0.008 | inactive: -0.012 | inactive: 0.024 | inactive: 0.013 | inactive: 0.017 | inactive: -0.011 | inactive: -0.006
12 | MYH10 isoform 3 (UniProt P35580) | inactive: -0.002 | inactive: 0.043 | inactive: 0.089 | inactive: -0.032 | inactive: 0.006 | inactive: 0.01 | inactive: 0.034 | inactive: 0.021 | inactive: 0.015 | inactive: -0.024
13 | MRPS15 (UniProt P82914) | inactive: -0.061 | inactive: -0.201 | inactive: -0.119 | inactive: 0.089 | inactive: 0.069 | inactive: 0.064 | inactive: 0.021 | inactive: 0.106 | inactive: -0.045 | inactive: -0.108
14 | MYO6 isoform 6 (UniProt Q9UM54) | inactive: -0.044 | inactive: 0.005 | inactive: 0.067 | inactive: 0.01 | inactive: 0.009 | inactive: 0.01 | inactive: -0.002 | inactive: -0.034 | inactive: 0.032 | inactive: 0.061
15 | MYCBP (UniProt Q99417) | inactive: -0.008 | inactive: -0.068 | inactive: 0.063 | inactive: -0.026 | inactive: 0.056 | inactive: 0.048 | inactive: -0.114 | inactive: 0 | inactive: 0.02 | inactive: -0.049
16 | MXRA7 (UniProt P84157) | inactive: -0.052 | inactive: -0.109 | inactive: -0.083 | inactive: 0.047 | inactive: -0.067 | inactive: 0.018 | inactive: -0.033 | inactive: 0.037 | inactive: -0.038 | inactive: 0.013
17 | MT-ND1 (UniProt P03886) | inactive: -0.075 | inactive: 0.031 | inactive: -0.028 | inactive: 0.097 | inactive: -0.005 | inactive: 0.032 | inactive: 0.053 | inactive: 0.12 | inactive: -0.187 | inactive: 0.018
18 | MRPS7 (UniProt Q9Y2R9) | inactive: -0.055 | inactive: 0.053 | inactive: -0.076 | inactive: 0.129 | inactive: -0.037 | inactive: 0.011 | inactive: -0.004 | inactive: 0.036 | inactive: -0.036 | inactive: -0.045
19 | MTX2 (UniProt O75431) | inactive: 0.029 | inactive: 0.045 | inactive: -0.004 | inactive: 0.022 | inactive: 0.052 | inactive: -0.01 | inactive: 0.178 | inactive: -0.002 | inactive: -0.023 | inactive: 0.022
20 | MYO18A (UniProt Q92614) | inactive: 0.081 | inactive: 0.07 | inactive: -0.162 | inactive: 0.073 | inactive: 0.056 | inactive: -0.103 | inactive: -0.012 | inactive: -0.13 | inactive: 0.055 | inactive: 0.061
21 | MRPS27 isoform 2 (UniProt Q92552) | inactive: -0.044 | inactive: -0.058 | inactive: 0.018 | inactive: 0.061 | inactive: 0.056 | inactive: 0.024 | inactive: 0.074 | inactive: 0.086 | inactive: -0.048 | inactive: -0.106
22 | MYH14 isoform 2 (UniProt Q7Z406) | inactive: 0.008 | inactive: -0.008 | inactive: 0.137 | inactive: -0.005 | inactive: -0.043 | inactive: 0.015 | inactive: 0.046 | inactive: -0.025 | inactive: -0.01 | inactive: 0.022
23 | MTA2 (UniProt O94776) | inactive: 0.08 | inactive: 0.01 | inactive: 0.005 | inactive: -0.045 | inactive: 0.061 | inactive: 0.009 | inactive: 0.047 | inactive: -0.013 | inactive: -0.037 | inactive: -0.013
24 | MTX1 (UniProt Q13505) | inactive: -0.002 | inactive: -0.005 | inactive: 0.104 | inactive: -0.042 | inactive: 0.009 | inactive: 0.007 | inactive: 0.042 | inactive: -0.005 | inactive: -0.018 | inactive: 0.019
25 | MTCH1 (UniProt Q9NZJ7) | inactive: -0.011 | inactive: 0.031 | inactive: 0.016 | inactive: 0.017 | inactive: 0.041 | inactive: -0.014 | inactive: 0.056 | inactive: 0.004 | inactive: -0.022 | inactive: 0.072
26 | MRPS24 (UniProt Q96EL2) | inactive: -0.175 | inactive: 0.022 | inactive: -0.032 | inactive: 0.062 | inactive: 0.016 | inactive: -0.02 | inactive: 0.01 | inactive: 0.039 | inactive: 0.071 | inactive: -0.1
27 | MTCH2 (UniProt Q9Y6C9) | inactive: 0.001 | inactive: -0.038 | inactive: 0.001 | inactive: 0.029 | inactive: 0.142 | inactive: 0.015 | inactive: 0.012 | inactive: -0.046 | inactive: 0.047 | inactive: 0.03
28 | MUC1, A0A087WWM1 | inactive: 0.02 | inactive: -0.003 | inactive: -0.037 | inactive: 0.002 | inactive: -0.037 | inactive: 0.006 | inactive: 0.006 | inactive: -0.064 | inactive: -0.045 | inactive: 0.006
29 | MTA1 (UniProt Q13330) | inactive: -0.041 | inactive: 0.063 | inactive: -0.013 | inactive: 0.006 | inactive: 0.034 | inactive: 0.031 | inactive: -0.106 | inactive: 0 | inactive: -0.041 | inactive: -0.009
30 | MYO18B isoform 3 (UniProt Q8IUG5) | inactive: 0.198 | inactive: -0.297 | inactive: -0.346 | inactive: -0.288 | inactive: 0.283 | inactive: -0.028 | inactive: -0.299 | inactive: -0.107 | inactive: 0.205 | inactive: -0.273

2 records picked at random from the list so far, as already listed:
Row | Target | log2 fold change [1] | log2 fold change [2] | log2 fold change [3] | log2 fold change [4] | log2 fold change [5] | log2 fold change [6] | log2 fold change [7] | log2 fold change [8] | log2 fold change [9] | log2 fold change [10]
10 | MTM1 (UniProt Q13496) | inactive: 0.014 | inactive: 0.052 | inactive: -0.014 | inactive: 0.031 | inactive: -0.058 | inactive: 0.027 | inactive: -0.01 | inactive: 0.03 | inactive: -0.034 | inactive: 0.046
24 | MTX1 (UniProt Q13505) | inactive: -0.002 | inactive: -0.005 | inactive: 0.104 | inactive: -0.042 | inactive: 0.009 | inactive: 0.007 | inactive: 0.042 | inactive: -0.005 | inactive: -0.018 | inactive: 0.019
